Results published in article PMC7819943, “Rice protein-binding microarrays: a tool to detect cis-acting elements near promoter regions in rice”.
This is one part of the list.

Amino acid sequences for entries named in this document (tags omitted).
UniProt Q0JBA9, entry or part of it: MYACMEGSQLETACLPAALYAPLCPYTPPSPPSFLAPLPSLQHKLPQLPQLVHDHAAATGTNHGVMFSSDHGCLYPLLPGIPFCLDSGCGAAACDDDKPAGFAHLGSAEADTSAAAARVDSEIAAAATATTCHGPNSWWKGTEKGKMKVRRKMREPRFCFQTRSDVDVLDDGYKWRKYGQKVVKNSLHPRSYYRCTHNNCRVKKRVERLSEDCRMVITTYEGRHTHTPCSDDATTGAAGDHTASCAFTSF

Target: OsWRKY34 (Oryza sativa, UniProt Q0JBA9 1-250)
Test: protein-binding microarray (RPBM); PBS, 2% BSA, 51.3 ng/ul salmon testes DNA, 50 uM zinc acetate, 200 nM TF, 25 C, 1 h; high values mean tight binding
Settings: protein: recombinant; tags: N-terminal polyhistidine and DsRed monomer fusion (pET32a); label: CyDye5-dUTP incorporated in the synthesized complementary strand; 3' TTTTT single-stranded linker to array surface; dsDNA, one strand shown
In short: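 Transcription factors were made in E. coli BL21-CodonPlus as N-terminal fusions to a polyhistidine tag and DsRed, then purified on Ni–NTA. After primer extension with Cy5-dUTP and blocking with 2% BSA, a custom Agilent array was exposed for 1 h at 25 °C to 200 nM protein in PBS, 2% BSA, salmon testes DNA and 50 µM zinc acetate. Washed arrays were scanned on an Axon 4000B, and the binding signal is per-feature fluorescence intensity in arbitrary units.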

Sequence	binding signal
ATGTTGTTTGCTTGTATGTTTGGTCGTTTTCCATCCTTTGCGGAGTCACCTAGTGCAG	9130 fluorescence intensity (a.u.)
GCCGCTATCGACCATGGTCAGCCCTTAACCTAGCTTGTATCGGAGTCACCTAGTGCAG	9290 fluorescence intensity (a.u.)
TCGTCCTTGTAAGTACTCTAGTTGTTCTCCCTTTTTTTTTCGGAGTCACCTAGTGCAG	10800 fluorescence intensity (a.u.)
GCGGGGAGGGGCGGCGCCGACGCCTCATCGACTAGTTCACCGGAGTCACCTAGTGCAG	8720 fluorescence intensity (a.u.)
GCATTTTCTCCTTCGTTTACTCGATCTGCTTCCTTCGACACGGAGTCACCTAGTGCAG	12300 fluorescence intensity (a.u.)
ATTTTTGATGCTTGCTCGTTTTTTTCCTGCACTCATAACACGGAGTCACCTAGTGCAG	11000 fluorescence intensity (a.u.)
GCCTCTGTGGCGGGCGGTGCTTTTGTTTATTTGTTCACATCGGAGTCACCTAGTGCAG	9540 fluorescence intensity (a.u.)
ATTCAGTTGGTTTGGGGATTTAGATGTGGGCTCCTTCTTTCGGAGTCACCTAGTGCAG	13200 fluorescence intensity (a.u.)
ACGTCCATGATGTACTCCACGCGCCGCTCTTTCTCCGTCACGGAGTCACCTAGTGCAG	8170 fluorescence intensity (a.u.)
CTGTAGTGTTGCTTGGTTTCTCTTTTTTGCCTCTTCACGGCGGAGTCACCTAGTGCAG	13200 fluorescence intensity (a.u.)
CATGTATTCTTTTCCAGGCCCATTAGTCTATTGCGTGTGTCGGAGTCACCTAGTGCAG	9450 fluorescence intensity (a.u.)
TAAAACTTGAGAAATGTAGCTGTCCATCTTTTGTTCGAATCGGAGTCACCTAGTGCAG	8370 fluorescence intensity (a.u.)
TTTTTCAACCTTAGTTTTATTTTCCTCGTGATTTCAAAATCGGAGTCACCTAGTGCAG	9550 fluorescence intensity (a.u.)
GGCCCATCTGACCAAGCCCAGCTCGCGTCGTCGTGTTGATCGGAGTCACCTAGTGCAG	8930 fluorescence intensity (a.u.)
GCCACTTGTAGTATGATGTGTTTGTTTCCTACCATAACTACGGAGTCACCTAGTGCAG	8120 fluorescence intensity (a.u.)
GCTTGAGCATCTCTGTTGATCCATGATATACTCTTAATTTCGGAGTCACCTAGTGCAG	8130 fluorescence intensity (a.u.)
CCCCACCCTGTACTCTCTCCGTACATTACCGTCCCTTCCCCGGAGTCACCTAGTGCAG	8380 fluorescence intensity (a.u.)
TATATATTCTGGTTTATTTTATGTACTAGTCATTGTTACTCGGAGTCACCTAGTGCAG	8360 fluorescence intensity (a.u.)
TTTGACCTTGTTATGCCTTACTTGTTTGATTTGACCCTATCGGAGTCACCTAGTGCAG	10300 fluorescence intensity (a.u.)
CCATTCATTCGTTCGTTCACCTTGACTGACCACTGCAACTCGGAGTCACCTAGTGCAG	11500 fluorescence intensity (a.u.)
GGTGCCCCTTTGTCCAGCTAGCGATACCTCTCCTGCATACCGGAGTCACCTAGTGCAG	9920 fluorescence intensity (a.u.)
CTCCTCGCCTCTCTCGAACGCCGATTTCCCCTTCTCTCTCCGGAGTCACCTAGTGCAG	8710 fluorescence intensity (a.u.)
TCTGCCAAGGTTGTTGTTTGTTCCTACAGTTGAGAGTTGACGGAGTCACCTAGTGCAG	10000 fluorescence intensity (a.u.)
ATTCATATGTTTTTCCTTTATTTTGCAATCATCTGTTTTACGGAGTCACCTAGTGCAG	13300 fluorescence intensity (a.u.)
AGTCACCAGTATTTGTATTTCTTTTTGCCGATTTTTGGCCCGGAGTCACCTAGTGCAG	11800 fluorescence intensity (a.u.)
CACTTGGGCAAGAGATCCTCCTTCTTCTTCTTGTTATTGCCGGAGTCACCTAGTGCAG	9530 fluorescence intensity (a.u.)
CATCTCCATCTCCAGCTTAACTCAAGCCATCACAACTTAACGGAGTCACCTAGTGCAG	12300 fluorescence intensity (a.u.)

No new results follow: an excerpt of the list.
Sequence	binding signal
CACTTGGGCAAGAGATCCTCCTTCTTCTTCTTGTTATTGCCGGAGTCACCTAGTGCAG	9530 fluorescence intensity (a.u.)
CATCTCCATCTCCAGCTTAACTCAAGCCATCACAACTTAACGGAGTCACCTAGTGCAG	12300 fluorescence intensity (a.u.)

Carrying on:

Sequence	binding signal
CATACTCCTTGTTCCTGAGCCATACCTCGCCACCTTGCTGCGGAGTCACCTAGTGCAG	9010 fluorescence intensity (a.u.)
AGGTGGGCTTTTGTGATTTTCCAAAGAATTAATCTTCGAGCGGAGTCACCTAGTGCAG	11500 fluorescence intensity (a.u.)
ATTCCTGTATCATTATCTGATATGTTTTGGGTGATAAATGCGGAGTCACCTAGTGCAG	8200 fluorescence intensity (a.u.)
ACTGCTGTCTCCGCGTTACTCTACGCATGCATGCATGTATCGGAGTCACCTAGTGCAG	10000 fluorescence intensity (a.u.)
GTTTCAGGTTTTTGCAGCCAACAGTTTTGCTGATTTTTTACGGAGTCACCTAGTGCAG	9480 fluorescence intensity (a.u.)
AAGCCCCTGCGCCCATCTCTCACGCCAACGCAGACCGACACGGAGTCACCTAGTGCAG	8090 fluorescence intensity (a.u.)
ATCCGCCATCGTGCTGAGCACATCTTCAATGTTTCTTTCTCGGAGTCACCTAGTGCAG	8390 fluorescence intensity (a.u.)
GCAAAGTTTGCCGTTTGTGTCTGTCTCACTCACAAATCACCGGAGTCACCTAGTGCAG	8260 fluorescence intensity (a.u.)
GATCATTCCATGGTTTGGTTCCACCATTTGGACAGTCAACCGGAGTCACCTAGTGCAG	8200 fluorescence intensity (a.u.)
CGACAACGCCGTTGCCCTTGTCTATTTCATCCTTTACTGTCGGAGTCACCTAGTGCAG	9800 fluorescence intensity (a.u.)
TAGCAATAGCATTGAACCAAGCATGCCCACGGTCATATATCGGAGTCACCTAGTGCAG	8190 fluorescence intensity (a.u.)
ATCAACCTCACGTCATGCCCGGATCGGATCGATGATCACACGGAGTCACCTAGTGCAG	8560 fluorescence intensity (a.u.)
GAGCCATGGAACGCACGTGAGGTTTCGCTTTTGCCTGCACCGGAGTCACCTAGTGCAG	8630 fluorescence intensity (a.u.)
TATCCTTAATTTGTTTCTCCATTCTCTGATCTTATCTTTTCGGAGTCACCTAGTGCAG	8440 fluorescence intensity (a.u.)
GGCTTTTCGTGTCTTCTGTGTAAGGTTTTGCCGGTTTTCCCGGAGTCACCTAGTGCAG	9650 fluorescence intensity (a.u.)
CTTAACTCACTGTGAATGTGGTGACGTCTTTTTCCTCTTGCGGAGTCACCTAGTGCAG	10200 fluorescence intensity (a.u.)
CGCCTTCCGGCCGTACGCGTCCCGCCGCTCCATGCCTGACCGGAGTCACCTAGTGCAG	8150 fluorescence intensity (a.u.)
AACTGTATGCAATATATCCTCCTGTTCCTTTTCCCAGCTTCGGAGTCACCTAGTGCAG	10400 fluorescence intensity (a.u.)
CCTCCACCACCAATTTGGACTCTGCCGCTACGCCTCCTCCCGGAGTCACCTAGTGCAG	8430 fluorescence intensity (a.u.)
ATGGTCAAACACGTACTTAAAAAATCATCGGTGTCAAACACGGAGTCACCTAGTGCAG	8870 fluorescence intensity (a.u.)
CATGATATCTTCATTGTACATTTTTGTCACGCTCTCGTCACGGAGTCACCTAGTGCAG	9230 fluorescence intensity (a.u.)
ACCCGCACTGTGACCGGCCTTATATTAGACATTTTGCTCACGGAGTCACCTAGTGCAG	12100 fluorescence intensity (a.u.)
CGTTGGAACGTGCGGGTGTGGGGAAACTGAGGGTGAGGATCGGAGTCACCTAGTGCAG	8600 fluorescence intensity (a.u.)
TACGGTTTTTTTTGTTAGAGTGGCTTATCTAACCATCACTCGGAGTCACCTAGTGCAG	9840 fluorescence intensity (a.u.)
AGGCCACCATGGTTTGATTCCCACCATCCTCATTCTTTTACGGAGTCACCTAGTGCAG	10100 fluorescence intensity (a.u.)
CATTTACTTTTTAAAAACATTTTGCTATCTAAATTCGCGTCGGAGTCACCTAGTGCAG	9930 fluorescence intensity (a.u.)
GATATAGTTGTTCCCTGTTTGTCATTTTTCGCATGCATAACGGAGTCACCTAGTGCAG	13800 fluorescence intensity (a.u.)
